Record: PubChem BioAssay AID686938 (Drosophila RNAi Screening Center, 2013)
Assay: 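Looking for CRAC channel components and the factors controlling them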 (primary screen). Cells: Drosophila S2R+ cells. Knock-down reagent: long dsRNA against Drosophila genes, about 0.25 µg dsRNA per well, roughly 10,000 cells. Duration: 5 days of knock-down before the calcium assay. Challenge: thapsigargin (SERCA pump blocker) to empty calcium stores; entry signal taken 4 min after adding it. Detection: 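Duplicate raw fluo-4 intensities per well from a plate reader, at rest and four minutes after thapsigargin emptied calcium stores; entry-to-rest ratio filled for only some wells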. Direction: calcium entry signal: higher = stronger calcium signal after store depletion; entry to resting ratio: higher = more calcium entry relative to resting level; resting calcium signal: higher = higher resting calcium signal. Hit rule: 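Called when the plate z-score of the entry-to-rest ratio, mean of duplicates, falls below −3; wells with low overall dye signal (Fmax z below −2) or more than five off-targets excluded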. Meaning of the calls: active = strongly reduced calcium entry; inactive = no strong reduction.
The deposit covers about 23,000 reagents; below is an unselected part of those that have a named target and a result. Of all reagents, 75 (0.33%) were called active. 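Raw plate signals without normalisation; calls rest on plate z-scores that were not deposited; ratio present for only 364 wells.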 Names joined by + are all predicted targets of the reagent. Reagent sequences are not shown. Not stated in the record: the dose of the treatment.

| Gene | amplicon | calcium entry signal, replicate 1 (fluorescence units) | calcium entry signal, replicate 2 (fluorescence units) | entry to resting ratio | resting calcium signal, replicate 1 (fluorescence units) | resting calcium signal, replicate 2 (fluorescence units) | outcome |
| --- | --- | --- | --- | --- | --- | --- | --- |
| CG15249 | DRSC17978 | 3.85e7 | 4.93e7 | – | 1.87e7 | 2.48e7 | inactive |
| Pros28.2 (retired record) | DRSC16800 | 4.36e7 | 4.70e7 | – | 6.21e7 | 2.26e7 | inactive |
| CG43349 | DRSC00039 | 3.14e7 | 4.21e7 | – | 1.69e7 | 1.93e7 | inactive |
| CG34423 + Mthfs | DRSC04088 | 3.25e7 | 3.89e7 | – | 1.71e7 | 1.70e7 | inactive |
| c11.1 | DRSC18749 | 3.27e7 | 4.88e7 | – | 1.65e7 | 2.07e7 | inactive |
| CG3698 | DRSC11749 | 2.94e7 | 4.16e7 | – | 1.38e7 | 2.96e7 | inactive |
| CG4822 | DRSC00669 | 3.44e7 | – | – | 1.71e7 | – | inactive |
| Tti1 (Telo2 interacting protein 1) | DRSC15163 | 3.55e7 | 3.31e7 | – | 2.14e7 | 1.72e7 | inactive |
| CG14431 | DRSC17925 | 3.49e7 | 4.92e7 | – | 1.93e7 | 2.12e7 | inactive |
| CG14431 | DRSC17926 | 3.54e7 | 4.31e7 | – | 2.15e7 | 1.89e7 | inactive |
| mRpL35 (mitochondrial ribosomal protein L35) | DRSC14586 | 4.72e7 | 6.22e7 | – | 3.49e7 | 2.39e7 | inactive |
| CG11052 | DRSC14288 | 5.01e7 | 4.34e7 | – | 2.41e7 | 2.00e7 | inactive |
| Eh (Eclosion hormone) | DRSC16660 | 3.15e7 | 4.75e7 | – | 1.55e7 | 7.13e7 | inactive |
| CG5707 | DRSC08573 | 3.91e7 | 3.62e7 | – | 1.72e7 | 1.63e7 | inactive |
| RN-tre (Related to the N terminus of tre oncogene) | DRSC07521 | 3.62e7 | 3.87e7 | – | 1.82e7 | 1.91e7 | inactive |
| CG11449 | DRSC11662 | 2.97e7 | 5.17e7 | – | 1.45e7 | 2.23e7 | inactive |
| CG11854 | DRSC14409 | 2.82e7 | 6.08e7 | – | 1.61e7 | 2.51e7 | inactive |
| Pkcdelta (Protein kinase C delta) | DRSC19356 | 4.55e7 | 4.99e7 | – | 2.18e7 | 2.41e7 | inactive |
| Pkcdelta (Protein kinase C delta) | DRSC19399 | 4.31e7 | 5.46e7 | – | 2.00e7 | 2.57e7 | inactive |
| Liprin-alpha | DRSC02132 | 2.86e7 | – | – | 1.55e7 | – | inactive |
| SC35 (SR family splicing factor SC35) | DRSC02502 | 4.63e7 | 3.16e7 | – | 2.10e7 | 1.52e7 | inactive |
| SC35 (SR family splicing factor SC35) | DRSC03425 | 4.35e7 | 2.68e7 | – | 1.88e7 | 1.28e7 | inactive |
| p38c (p38c MAP kinase) | DRSC22939 | 5.42e7 | 3.57e7 | – | 2.75e7 | 1.64e7 | inactive |
| CG2126 | DRSC15418 | 6.14e7 | 5.06e7 | 2.2 | 2.74e7 | 2.09e7 | inactive |
| CG33177 | DRSC19949 | 3.86e7 | 3.50e7 | – | 1.81e7 | 1.56e7 | inactive |
| Nnf1b | DRSC22080 | 4.09e7 | 6.50e7 | – | 1.88e7 | 3.41e7 | inactive |
| Grasp65 | DRSC10917 | 3.11e7 | 5.04e7 | – | 1.56e7 | 2.29e7 | inactive |
| Hem (HEM-protein) | DRSC11865 | 2.78e7 | 3.61e7 | – | 1.35e7 | 2.43e7 | inactive |
| Nadsyn (NAD synthetase) | DRSC20222 | 3.47e7 | 3.71e7 | – | 1.65e7 | 2.04e7 | inactive |
| ms(2)34Fe (male sterile (2) 34Fe) | DRSC01905 | 4.62e7 | 3.02e7 | – | 2.09e7 | 1.43e7 | inactive |

A few values from above.
Under “calcium entry signal, replicate 2 (fluorescence units)”, CG11449 [DRSC11662] reads 5.17e7
Pkcdelta (Protein kinase C delta) [DRSC19356], outcome: inactive
Under “calcium entry signal, replicate 2 (fluorescence units)”, Eh (Eclosion hormone) [DRSC16660] has 4.75e7
Under “resting calcium signal, replicate 2 (fluorescence units)”, CG34423 + Mthfs [DRSC04088] reads 1.70e7
Entry of Hem (HEM-protein) [DRSC11865] in “outcome”: inactive
Entry for CG14431 [DRSC17925] under “calcium entry signal, replicate 2 (fluorescence units)”: 4.92e7

Additional results follow:
| Gene | amplicon | calcium entry signal, replicate 1 (fluorescence units) | calcium entry signal, replicate 2 (fluorescence units) | entry to resting ratio | resting calcium signal, replicate 1 (fluorescence units) | resting calcium signal, replicate 2 (fluorescence units) | outcome |
| --- | --- | --- | --- | --- | --- | --- | --- |
| CG12784 | DRSC14539 | 2.57e7 | 3.38e7 | – | 1.25e7 | 4.10e7 | inactive |
| AsnRS (Asparaginyl-tRNA synthetase) | DRSC01990 | 2.94e7 | – | – | 1.60e7 | – | inactive |
| CG7706 | DRSC16295 | 2.56e7 | 2.76e7 | – | 1.23e7 | 1.14e7 | inactive |
| CG33090 | DRSC01908 | 4.63e7 | – | – | 2.18e7 | – | inactive |
| EMC5 (ER membrane protein complex subunit 5) | DRSC02469 | 3.39e7 | 5.65e7 | – | 1.70e7 | 2.05e7 | inactive |
| Obp8a (Odorant-binding protein 8a) | DRSC17868 | 2.91e7 | 4.63e7 | – | 1.47e7 | 2.16e7 | inactive |
| mi (minus) | DRSC04498 | 4.16e7 | – | – | 2.07e7 | – | inactive |
| NC2alpha (Negative Cofactor 2alpha) | DRSC04059 | 2.64e7 | – | – | 1.50e7 | – | inactive |
| CG5246 | DRSC15751 | 3.11e7 | 6.44e7 | – | 1.55e7 | 6.47e7 | inactive |
| CG14006 | DRSC02338 | 2.91e7 | 2.88e7 | – | 1.45e7 | 1.43e7 | inactive |
| Cpr76Ba (Cuticular protein 76Ba) | DRSC11060 | 2.35e7 | 3.76e7 | – | 1.18e7 | 1.74e7 | inactive |
| Syx5 (Syntaxin 5) | DRSC03432 | 2.60e7 | – | – | 1.94e7 | – | inactive |
| CG14627 | DRSC18630 | 4.32e7 | 4.54e7 | 1.8 | 2.45e7 | 2.38e7 | inactive |
| CG4229 | DRSC10407 | 3.04e7 | 3.48e7 | – | 1.32e7 | 2.47e7 | inactive |
| CG8565 | DRSC20112 | 4.72e7 | 3.48e7 | – | 2.20e7 | 1.43e7 | inactive |
| Rrp42 | DRSC07161 | 2.37e7 | 2.95e7 | – | 1.43e7 | 1.70e7 | inactive |
| Alg14 (ALG14, UDP-N-acetylglucosaminyltransferase subunit) | DRSC19983 | 3.01e7 | 2.80e7 | – | 1.69e7 | 1.41e7 | inactive |
| CG11068 | DRSC19369 | 2.50e7 | 2.99e7 | – | 1.44e7 | 1.31e7 | inactive |
| mus304 (mutagen-sensitive 304) | DRSC11372 | 3.61e7 | 6.28e7 | – | 1.85e7 | 2.48e7 | inactive |
| CG30095 | DRSC07175 | 4.50e7 | 4.49e7 | – | 1.95e7 | 2.13e7 | inactive |
| CG4734 | DRSC06885 | 2.82e7 | 4.05e7 | – | 1.47e7 | 1.89e7 | inactive |
| CG4734 | DRSC22072 | 3.03e7 | 6.71e7 | – | 1.50e7 | 3.48e7 | inactive |
| His-Psi:CR31616 + His-Psi:CR31615 | DRSC03760 | 1.98e7 | 4.01e7 | – | 1.19e7 | 1.79e7 | inactive |
| ctp (cut up) | DRSC18758 | 2.02e7 | 1.80e7 | – | 9.96e6 | 9.70e6 | inactive |
| Cpr49Ah (Cuticular protein 49Ah) | DRSC07204 | 2.82e7 | 4.25e7 | – | 1.57e7 | 2.13e7 | inactive |
| sbm (sobremesa) | DRSC20185 | 3.81e7 | 3.47e7 | – | 1.92e7 | 1.70e7 | inactive |
| CG17698 | DRSC11907 | 2.51e7 | 4.72e7 | – | 1.28e7 | 2.09e7 | inactive |
| Sas-4 (Spindle assembly abnormal 4) | DRSC12505 | 4.53e7 | 4.47e7 | – | 2.34e7 | 2.14e7 | inactive |
